Experimental data: patent US20120308482A1
These are yes or no findings as the source states them, for the method shown. Some binding calls cover weakened binding; strength is not graded here. Sequences can lack the tags named with a protein.

Sequences of proteins named here, by UniProt entry; tags and fusion partners are left off. A change or cut given only in a name is not applied to a line headed by its entry.
UniProt P48551: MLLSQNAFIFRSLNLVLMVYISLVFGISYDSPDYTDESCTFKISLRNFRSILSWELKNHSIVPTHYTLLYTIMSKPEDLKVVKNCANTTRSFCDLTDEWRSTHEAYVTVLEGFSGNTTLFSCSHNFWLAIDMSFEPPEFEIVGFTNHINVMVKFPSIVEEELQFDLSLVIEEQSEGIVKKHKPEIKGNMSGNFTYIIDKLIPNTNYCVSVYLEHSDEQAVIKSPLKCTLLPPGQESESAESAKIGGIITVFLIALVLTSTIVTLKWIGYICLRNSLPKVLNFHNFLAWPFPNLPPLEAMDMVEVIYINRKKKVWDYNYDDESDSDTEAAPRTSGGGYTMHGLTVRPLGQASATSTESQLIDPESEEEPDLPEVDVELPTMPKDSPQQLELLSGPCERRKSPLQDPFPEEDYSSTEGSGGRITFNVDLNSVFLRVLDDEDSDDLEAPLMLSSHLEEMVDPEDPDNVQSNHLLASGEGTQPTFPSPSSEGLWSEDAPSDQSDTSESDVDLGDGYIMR
UniProt P17181: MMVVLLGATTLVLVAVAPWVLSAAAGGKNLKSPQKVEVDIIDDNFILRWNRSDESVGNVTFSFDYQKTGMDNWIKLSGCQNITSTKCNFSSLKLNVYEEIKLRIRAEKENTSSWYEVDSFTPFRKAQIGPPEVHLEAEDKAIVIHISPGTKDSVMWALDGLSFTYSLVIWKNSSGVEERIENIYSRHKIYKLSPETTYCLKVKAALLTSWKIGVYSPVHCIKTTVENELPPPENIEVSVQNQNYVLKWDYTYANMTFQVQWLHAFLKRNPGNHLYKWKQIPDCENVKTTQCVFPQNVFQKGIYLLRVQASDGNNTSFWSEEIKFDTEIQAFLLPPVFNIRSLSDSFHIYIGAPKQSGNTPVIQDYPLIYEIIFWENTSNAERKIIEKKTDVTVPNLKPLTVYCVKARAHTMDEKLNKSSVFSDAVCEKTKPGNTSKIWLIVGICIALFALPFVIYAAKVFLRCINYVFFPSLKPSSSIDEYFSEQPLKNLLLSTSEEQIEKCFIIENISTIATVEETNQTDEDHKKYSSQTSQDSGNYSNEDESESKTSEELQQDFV

Target: human IFN receptor complex (human) (UniProt P48551+P17181)
Experiment: inferred by the filing from the ISRE reporter gene assay on human HEK293 cells

B1: cyno IFNω protein (Macaca fascicularis interferon omega) with a C-terminal 6xHis tag (ligand)
chain: CDLPQNHGLLSRNTLVLLHQMRRISPFLCLKDRRDFRFPQEMVEGSQLQKAQVMSVLHEMLQQIFSLFHTEHSSAAWNTTLLDHLHTGLHRQLEHLETCLVQVMREGESAGAIRSPALTLRRYFQGIRVYLKEKKYSDCAWEVVRMEIMKSLFLSTNMQERLKSKDGDLGSSHHHHHH
- binding: binds
